We go through 42 sequences from article PMC7819943, “Rice protein-binding microarrays: a tool to detect cis-acting elements near promoter regions in rice”.

The chains behind the UniProt entries cited, without tags or fusion partners.
UniProt Q0JBA9, entry or part of it: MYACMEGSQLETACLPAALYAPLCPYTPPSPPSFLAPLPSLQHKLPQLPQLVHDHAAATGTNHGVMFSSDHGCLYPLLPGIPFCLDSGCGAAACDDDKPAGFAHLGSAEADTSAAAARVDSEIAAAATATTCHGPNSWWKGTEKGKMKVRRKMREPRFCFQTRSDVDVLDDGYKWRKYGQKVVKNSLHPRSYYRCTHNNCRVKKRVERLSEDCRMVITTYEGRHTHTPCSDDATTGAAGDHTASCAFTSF

The list shows a part of the results.

In this assay the target is OsWRKY34 (Oryza sativa, UniProt Q0JBA9 1-250). Put plainly: protein-binding microarray (RPBM); PBS, 2% BSA, 51.3 ng/ul salmon testes DNA, 50 uM zinc acetate, 200 nM TF, 25 C, 1 h; high values mean tight binding. Particulars: protein: recombinant; tags: N-terminal polyhistidine and DsRed monomer fusion (pET32a); label: CyDye5-dUTP incorporated in the synthesized complementary strand; 3' TTTTT single-stranded linker to array surface; dsDNA, one strand shown. In outline: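 Binding signal here means per-feature fluorescence intensity in arbitrary units. The values were read on an Axon 4000B scanner after a custom Agilent array, double-stranded by primer extension with Cy5-dUTP, was incubated with 200 nM protein at 25 °C for 1 h in PBS with 2% BSA, salmon testes DNA and 50 µM zinc acetate, then washed. The proteins were transcription factors with an N-terminal polyhistidine tag and DsRed, expressed in E. coli BL21-CodonPlus and purified on Ni–NTA.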
In the case of “TTTGTTGCTTTTTGGTTGACTAAAACTTTCCATGGAATGCCGGAGTCACCTAGTGCAG”, the binding signal was 8040 fluorescence intensity (a.u.).

As to “CATAGTTTATATATCCGGTTTATCAAGTGACCTAGCGTTCCGGAGTCACCTAGTGCAG”, the binding signal was 8200 fluorescence intensity (a.u.).

In the case of “CGTGACAACTCCACCTCCACTTCTCTCCTCTCTCGTCTTTCGGAGTCACCTAGTGCAG”, the binding signal was 9820 fluorescence intensity (a.u.).

For “TCGCATGTCCCTCGCTCTCCTGTACATCATGCGCATTCTTCGGAGTCACCTAGTGCAG”, the binding signal was 13500 fluorescence intensity (a.u.).

As to “ATTATCAAATTTCTCGTGCATATGTCACTCGTATTTGTTGCGGAGTCACCTAGTGCAG”, the binding signal was 9590 fluorescence intensity (a.u.).

In the case of “AACTCTCTAGCTAATTAATCTACTTCACTAACTTTGACTACGGAGTCACCTAGTGCAG”, the binding signal was 8130 fluorescence intensity (a.u.).

Turning to “GTCACGAGTTTGATGCTCCTTTCTTGTCGTCGTGCTAGCACGGAGTCACCTAGTGCAG”, the binding signal was 9410 fluorescence intensity (a.u.).

For the sequence “TTGCCCACATTATAATATGCAGCAGCCACATTGCTGCATCCGGAGTCACCTAGTGCAG”, the binding signal was 8670 fluorescence intensity (a.u.).

In the case of “CCCCACCAGGCCACCCGGCTTCTTCGTGTTGCTCACTGCACGGAGTCACCTAGTGCAG”, the binding signal is 9680 fluorescence intensity (a.u.).

Regarding “CTTATTGCGCATTCTCTGTTGAGGCGGACATTGCCATTGCCGGAGTCACCTAGTGCAG”, the binding signal is 12400 fluorescence intensity (a.u.).

For “TTGCTAAAAAGTCAACGGTGTCAAATATTTCGAAACGGAGCGGAGTCACCTAGTGCAG”, the binding signal is 12300 fluorescence intensity (a.u.).

Regarding “ACCATTATTTAACATGTCCAATTTTAATCGTCCGTCTTATCGGAGTCACCTAGTGCAG”, the binding signal was 9290 fluorescence intensity (a.u.).

Turning to “GGTGCTCCGGATGCGCAGGTACAAGCTTTTTTTTTAGTTTCGGAGTCACCTAGTGCAG”, the binding signal is 8040 fluorescence intensity (a.u.).

In the case of “ACAGTAGAGTGGGGTGTGCATATAATATTCATCAATTAGGCGGAGTCACCTAGTGCAG”, the binding signal is 10100 fluorescence intensity (a.u.).

For “TCCTGCCACACACTCGTCAATCGCGAAATCATGTGGCTAACGGAGTCACCTAGTGCAG”, the binding signal is 10000 fluorescence intensity (a.u.).

“AGGTAATTCAACTTCATCCCTAGAAGCCATGGTACTTTTTCGGAGTCACCTAGTGCAG”: the binding signal is 10800 fluorescence intensity (a.u.).

For “CCACGCCCAGCGAAAACCCGTACCCGTCTCGTCTTATTTTCGGAGTCACCTAGTGCAG”, the binding signal was 12400 fluorescence intensity (a.u.).

Take “TTTTTTCATATTTTATGTTTTATGTATACGTTCAAACATTCGGAGTCACCTAGTGCAG”: the binding signal was 8690 fluorescence intensity (a.u.).

As to “GTGACCTCCACTTCTTGGAGACCTCTTGCTGCTGCTCATTCGGAGTCACCTAGTGCAG”, the binding signal is 8190 fluorescence intensity (a.u.).

As for “AACACGCGCACACCACCATGGCGAATCCACCACCGCTAGTCGGAGTCACCTAGTGCAG”, the binding signal was 8400 fluorescence intensity (a.u.).

For the sequence “AAAATTTTTCTATTCAATTCTTTTCGTTTTTGGACCTCTCCGGAGTCACCTAGTGCAG”, the binding signal is 8660 fluorescence intensity (a.u.).

Consider “GCTTTTATTGTTGCAGATACTACATGAACTACTTTAATTTCGGAGTCACCTAGTGCAG”, for which the binding signal was 9550 fluorescence intensity (a.u.).

Consider “GAGGTCTTATGTTTAATCCCTAACCCGTTCAATATCTTCTCGGAGTCACCTAGTGCAG”, for which the binding signal was 8840 fluorescence intensity (a.u.).

As to “GGTGGCCCTCGTGGTGTGGTGGTGGAAGAAGAGGGCGATGCGGAGTCACCTAGTGCAG”, the binding signal was 8320 fluorescence intensity (a.u.).

In the case of “CCCTCCATCTACTTTTAATAGTCATATTTCATCTTGACACCGGAGTCACCTAGTGCAG”, the binding signal is 8410 fluorescence intensity (a.u.).

On to “CTCCTCATCCGCCTCTCCACCCACCTCAACCCTGACCCGACGGAGTCACCTAGTGCAG”, for which the binding signal was 10200 fluorescence intensity (a.u.).

Consider “GCCCACGTACGCCGGCACCCATCCGTCTGCTCCACGCGTCCGGAGTCACCTAGTGCAG”, for which the binding signal is 10200 fluorescence intensity (a.u.).

For “GTGGTGGTGGTGGTGGTGGTGGTGGTGGTGCACGGCCATGCGGAGTCACCTAGTGCAG”, the binding signal was 16400 fluorescence intensity (a.u.).

With “GTCGTCAACTCCGTCTCGCAATTCCCAAACCGCACCTTCCCGGAGTCACCTAGTGCAG”, the binding signal was 9230 fluorescence intensity (a.u.).

“GTTCTGACTGTTGTGTTGTGGGTGTTTGGTTTATGAGCAGCGGAGTCACCTAGTGCAG”: the binding signal is 8430 fluorescence intensity (a.u.).

With “TCATTGCCCGTCCGATCTCTCACCTGCGATTTAATGTTCACGGAGTCACCTAGTGCAG”, the binding signal is 11500 fluorescence intensity (a.u.).

Turning to “CTTTGCCTTCGCGGCGCCGTCTCCGTCGCCACTCACACCCCGGAGTCACCTAGTGCAG”, the binding signal was 8550 fluorescence intensity (a.u.).

For “GCCTGCTGTTCCTTTTAGTTTCTCCAAGCTCCTGCCAACACGGAGTCACCTAGTGCAG”, the binding signal is 8320 fluorescence intensity (a.u.).

With “TGAGGTTTGTCTTGGTATTTTGTTGTTTTGGTCTACAGTTCGGAGTCACCTAGTGCAG”, the binding signal is 10700 fluorescence intensity (a.u.).

With “GTCGCATGTTATACGCTTTAATCATCTCCGCGTACATAACCGGAGTCACCTAGTGCAG”, the binding signal was 9620 fluorescence intensity (a.u.).

For the sequence “CTCATCCTCCTCAATCACCGTTCGACTCGCTGCTTCCCCTCGGAGTCACCTAGTGCAG”, the binding signal is 8840 fluorescence intensity (a.u.).

Turning to “GTAGTCTCACCTACACCAGCCCGGGAACTATTCTCATTGTCGGAGTCACCTAGTGCAG”, the binding signal was 8080 fluorescence intensity (a.u.).

As for “TAGGTTTTTTTTTACTTTTTAACTTGGCTGATTTTATTGACGGAGTCACCTAGTGCAG”, the binding signal is 8760 fluorescence intensity (a.u.).

Turning to “GGCGTGTTGGTGTGCGTGGATTGGGTGGGTGAGGAGGATGCGGAGTCACCTAGTGCAG”, the binding signal was 13000 fluorescence intensity (a.u.).

Take “GGCCCTACTTCCCTTCACGCCTCCACTGACCTCGCCGGCCCGGAGTCACCTAGTGCAG”: the binding signal is 9270 fluorescence intensity (a.u.).

With “AGCTTACACCCTCATCTTTTCGCTTATACTTATCAGCCAACGGAGTCACCTAGTGCAG”, the binding signal was 13100 fluorescence intensity (a.u.).

On to “ACACATACATTCCTATTAGAATCCTGCATTTTTTCTATTCCGGAGTCACCTAGTGCAG”, for which the binding signal is 8440 fluorescence intensity (a.u.).
